For some of these results: No signal at the amounts used counts as a negative. For some of these results: At least one verdict rests on a figure or table, not on a statement of the authors. For some of these results: Construct, isoform or probe ends are uncertain for at least one entry.
Columns and labels:
BSA (bovine) [1] = biological target: BSA (bovine) (UniProt P02769); experiment: dot ELASA; conditions: 4% BSA negative control; KD in binding buffer (composition not restated), 2 h at RT; pH not stated; commercial protein; single-stranded DNA
[2] = biological target: CA125 (native antigen) (human) (UniProt Q8WXI7); experiment: membrane binding, elution and agarose gel; conditions: KD in binding buffer (composition not restated), 2 h at RT, pH not stated, native protein, single-stranded DNA
BSA (bovine) [3] = biological target: BSA (bovine) (UniProt P02769); experiment: competition (NALFA); conditions: 5-15 mg/mL BSA vs AuNP-CA125; KD in binding buffer (composition not restated), 2 h at RT; pH not stated; commercial protein; single-stranded DNA

Protein sequences, listed by entry. Tags and fused reporters are not part of them. Residues count along the entry.
UniProt P02769, 25-607: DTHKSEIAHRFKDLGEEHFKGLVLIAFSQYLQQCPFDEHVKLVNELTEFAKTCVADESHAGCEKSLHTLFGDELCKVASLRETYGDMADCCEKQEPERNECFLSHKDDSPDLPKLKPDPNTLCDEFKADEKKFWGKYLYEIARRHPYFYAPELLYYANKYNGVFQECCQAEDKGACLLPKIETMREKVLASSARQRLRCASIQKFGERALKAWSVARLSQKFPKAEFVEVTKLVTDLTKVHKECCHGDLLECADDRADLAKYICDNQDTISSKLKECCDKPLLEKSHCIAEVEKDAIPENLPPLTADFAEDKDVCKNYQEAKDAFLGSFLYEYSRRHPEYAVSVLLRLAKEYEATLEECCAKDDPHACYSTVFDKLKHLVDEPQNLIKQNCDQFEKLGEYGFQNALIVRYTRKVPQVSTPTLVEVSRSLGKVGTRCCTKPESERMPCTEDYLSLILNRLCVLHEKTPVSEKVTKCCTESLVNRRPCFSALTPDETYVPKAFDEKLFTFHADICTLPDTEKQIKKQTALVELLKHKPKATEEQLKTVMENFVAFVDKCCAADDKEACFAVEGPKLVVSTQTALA

Sequence	binding result (BSA (bovine) [1])	binding result ([2]; 100 mM NaCl, 5 mM MgCl2)	binding result ([2]; MilliQ water (positive control))	binding result (BSA (bovine) [3])
TAGGGAAGAGAAGGACATATGATTTTAGGGAAGAGAAGGACTTTTATGCCGCCTTGACTAGTACATGACCACTTGA [biotinylated Apt 2.26]	no binding	–	–	–
TAGGGAAGAGAAGGACATATGATTTTAGGGAAGAGAAGGACTTTTATGCCGCCTTGACTAGTACATGACCACTTGA [Apt 2.26]	–	binds	binds	no binding
